{"source": "patent US20250359547A1", "about": "“ALKOXYLATED ALKANOLS FOR ENHANCING THE ACTIVITY OF ANTIMICROBIAL AGENTS” (BASF SE, priority 2022, published 2025)", "test_system": "Escherichia coli (E. coli DSM 682)", "assay": "Bactericidal activity of cleaner/disinfecting formulations according to DIN EN 1276-2010 under dirty conditions", "format": "cell-based", "conditions": "Example 1; BAC 40 ppm in-test, no ethoxylated alkanol; 1:100 dilution, 0.3% bovine albumin, 35° C., 5 min contact time, pH ca. 8; listed as BAG", "method": "For biological activity testing, the following microorganisms were used: Escherichia coli(E. coli DSM 682)\nLutensol® XP 40 and benzalkonium chloride (BAC) were formulated into a dilutable concentrated hard-surface cleaner. For comparison, corresponding formulations containing Lutensol® XP 70 or Lutensol® A 7 N instead of Lutensol® XP 40 were also prepared. The finished formulations were pre-dissolved 1:80 in standardized hard water (DIN EN 1276-2010) and then diluted to 80% by adding 1 ml of the inoculate and 1 ml of bovine albumin solution to 8 ml of the pre-dissolved cleaner, so that in-test a dilution of 1:100 was obtained.\nAntimicrobial testing of the above formulations in 1:100 dilution was done according to European Standard (DIN EN 1276-2010) under dirty conditions, i.e. additional soiling of 0.3% bovine albumin at 35° C. and […] contact time. Neutralization was done using the Saponin-containing neutralizer as described in DIN EN 1276 (30 g/l Polysorbate 80+30 g/l Saponin+3 g/l Lecithin). Results are documented in the table below as logarithmic reduction (Ig R) in comparison to the number of microorganisms used for the test.\nBenzalkonium chloride (BAC) and one of Lutensol® XP 30, Lutensol® XP 40 and Lutensol® XP 50 were formulated into a dilutable concentrated hard-surface cleaner. […]", "note": "Some results were stated once for a whole list of compounds, not compound by compound."}
{"smiles": "CCCCCCCCCCCC[N+](C)(C)Cc1ccccc1.[Cl-]", "note": "[BAC, lauryl dimethyl benzyl ammonium chloride]", "values": [{"measurement": "E. coli logarithmic reduction (lg R)", "value": "< 0.87", "unit": "lg R"}]}
